According to PubChem BioAssay AID1487 (National Center for Advancing Translational Sciences (NCATS), 2009):
This is one part of the list. These are further read-outs of the screen, such as a control signal, another cell line or another target. No call is given for them. Most of these compounds were active or inconclusive in the main read-out, so they are no random draw. The note in brackets gives the kind of curve behind each potency; many fits are weak.

Assay: qHTS Assay for Modulators of Lamin A Splicing
Settings: HeLa LMNA splicing GFP/RFP minigene ratio, 48 h
Outline: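 Read-out is the ratio of GFP to DsRed2 object intensity, acquired by 488 nm laser-scanning cytometry on HeLa lamin A-EGFP minigene reporter cells. Compound incubation 48 hrs at 37 °C in Opti-MEM with 2% FBS; DMSO 0.5% final.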

[1] = measured here: GFP splicing reporter channel
[2] = measured here: RFP viability control channel

Row | Compound | AC50 [1] | AC50 [2]
1 | CN(C)/C=N/S(=O)(=O)c1cccn1-c1ncc(C(F)(F)F)cc1Cl | 39.8 µM [falling, partial curve] | 1 µM [falling, partial curve]
2 | CCN1CCN(c2nc3sc4c(c3c3ncnn23)CC(C)CC4)CC1 (stereo not given) | 10 µM [rising, single point] | –
3 | O=C1Nc2ccc(Cl)cc2/C1=C/C1CC=CCC1 (stereo not given) | 17.8 µM [rising, single point] | –
4 | O=C(/C=C/c1ccco1)NC(=S)Nc1cccc([N+](=O)[O-])c1 | – | 4.47 µM [rising, partial curve]
5 | CC(=O)Nc1ccc(S(=O)(=O)NCCSCc2c(Cl)cccc2Cl)cc1 | 11.2 µM [falling, single point] | –
6 | CN(C)/C=C(\C=O)c1ncc(C(F)(F)F)cc1Cl | 4.47 µM [rising, full curve, poor fit] | 4.47 µM [rising, partial curve]
7 | CNC(=O)C1CCC(Cn2c(=O)c3sccc3n(CC(=O)NCc3ccc(OC)cc3)c2=O)CC1 (stereo not given) | 0.794 µM [rising, full curve, poor fit] | –
8 | COc1ccc(-c2cc(C(F)(F)F)n3ncc(C(=O)NCc4ccco4)c3n2)cc1 | 11.2 µM [rising, partial curve, poor fit] | 12.6 µM [rising, single point]
9 | O=C(c1ccccc1)c1ccc2nc(-c3ccco3)c(-c3ccco3)nc2c1 | 0.00447 µM [rising, full curve, poor fit] | 0.00447 µM [rising, full curve, poor fit]
10 | Fc1ccc(NCc2nnc(SCc3nnc(-c4ccccc4)o3)n2Cc2ccccc2)cc1 | 14.1 µM [rising, single point] | 25.1 µM [rising, single point]
11 | COc1cc(-c2cc(C(=O)Nc3nc4ccccc4s3)c3ccccc3n2)cc(OC)c1OC | 11.2 µM [rising, partial curve, poor fit] | 11.2 µM [rising, partial curve]
12 | O=C(CSc1nnnn1-c1cccc2c1CCCC2)N1CCOCC1 | 14.1 µM [rising, partial curve] | 11.2 µM [rising, partial curve]
13 | COc1ccc(-n2c(C)cc(C(=O)CN3C(=O)NC4(CCCc5sccc54)C3=O)c2C)cc1 (stereo not given) | 11.2 µM [rising, partial curve] | 14.1 µM [rising, partial curve]
14 | CC(C)(C)c1ccc(C(=O)NCc2cccnc2)cc1 | 14.1 µM [rising, single point] | 35.5 µM [rising, single point]
15 | Cc1ccc(C(=O)N(CC(=O)NC2CCCC2)c2ccc3c(c2)OCCO3)s1 | 0.0794 µM [falling, full curve, poor fit] | 0.0891 µM [falling, full curve, poor fit]
16 | CC1CCCN(C(=S)Nc2ccc3nc4n(c(=O)c3c2)CCCCC4)C1 (stereo not given) | – | 35.5 µM [rising, single point]
17 | CCn1cc2c(n1)-c1c(oc(C(=O)Nc3cccc(C)c3C)c1C)CC2 | – | 2 µM [rising, full curve, poor fit]
18 | C=CCn1c(SCC(=O)Nc2ccccc2CC)nnc1-c1ccncc1 | – | 3.55 µM [rising, single point]
19 | COC(=O)c1ccc(NC(=O)CSc2nc3cccnc3n2C)cc1 | – | 25.1 µM [rising, single point]
20 | CCCCOc1ccc(CNC(=S)N/N=C/c2ccc(OC)c(OC)c2)cc1 | – | 11.2 µM [rising, partial curve, poor fit]
21 | Cc1nn(-c2ccccc2)c(N2CCCC2)c1/C=N/NC(=O)c1cc2ccccc2cc1O | – | 11.2 µM [rising, partial curve]
22 | Cc1ccc(C)c(C2=CSC3=NCCN23)c1 | – | 8.91 µM [rising, partial curve]
23 | O=C(Nc1cccc(F)c1)N1CCN(C/C=C/c2ccccc2)CC1 | – | 14.1 µM [rising, single point]
24 | CC[C@@H](C)[C@H]1O[C@]2(CC[C@@H]1C)C[C@@H]1C[C@@H](C/C=C(\C)[C@@H](O[C@H]3C[C@H](OC)[C@@H](O[C@H]4C[C@H](OC)[C@@H](O)[C@H](C)O4)[C@H](C)O3)[C@@H](C)/C=C/C=C3\CO[C@@H]4[C@H](O)C(C)=C[C@@H](C(=O)O1)[C@]34O)O2 | 5.62 µM [falling, full curve] | 6.31 µM [falling, full curve]

Row | Compound | AC50 [1] | AC50 [2]
25 | CCOC(=O)c1sc(NC(=S)NC(=O)CC(C)C)cc1C | 12.6 µM [rising, single point] | –
26 | CC(=NCCCn1ccnc1)c1c(C)[nH]n(-c2ccc([N+](=O)[O-])cc2)c1=O | 20 µM [falling, partial curve, poor fit] | –
27 | CCOc1ccc(-c2cc(C(=O)NCc3ccccc3Cl)c3ccccc3n2)cc1 | 0.794 µM [falling, full curve, poor fit] | 0.708 µM [falling, full curve, poor fit]
28 | S=C1NC=NC2N=CNC12 (stereo not given) | 0.0562 µM [rising, full curve, poor fit] | 0.0631 µM [rising, full curve, poor fit]
29 | Clc1ccc2ncc(-c3nnnn3-c3ccccc3)c(-c3ccccc3)c2c1 | 7.08 µM [falling, single point] | 35.5 µM [falling, single point]
30 | Cc1ccc(N2CCN(C(=O)c3ccccc3F)CC2)c(C)c1 | – | 14.1 µM [rising, partial curve]
31 | C/C(=N/NS(=O)(=O)c1ccc(Cl)cc1)c1cccc(NC(=O)c2ccc(Cl)cc2Cl)c1 | 35.5 µM [falling, single point] | 12.6 µM [falling, single point]
32 | COc1ccc(C(=O)Oc2cccc3cccnc23)cc1[N+](=O)[O-] | 10 µM [falling, partial curve, poor fit] | 12.6 µM [falling, partial curve, poor fit]
33 | Cc1ccc(-c2ccc(SCC(=O)N3CCCc4ccccc43)nn2)cc1 | 31.6 µM [rising, single point] | 31.6 µM [rising, single point]
34 | COCCCNC(=O)c1ccc(-n2c(-c3ccccc3)cc3c2CCCC3)cc1 | 17.8 µM [falling, partial curve, poor fit] | –
35 | Cc1nnc(SCc2ccc(Cl)cc2)nc1/C=C/N(C)C | 1.41 µM [falling, partial curve] | 1.41 µM [falling, partial curve, poor fit]
36 | O=C(NC(=S)N1CCN(c2ccc(F)cc2)CC1)c1cccs1 | – | 3.55 µM [falling, single point]
37 | COc1ccc(O)c(/C=N/NC(=O)c2ccc(OCc3cccc(Br)c3)cc2)c1 | 3.98 µM [falling, full curve] | –
38 | OC[C@H]1O[C@@H]2O[C@H]3[C@H](O)[C@@H](O)[C@@H](O[C@H]4[C@H](O)[C@@H](O)[C@@H](O[C@H]5[C@H](O)[C@@H](O)[C@@H](O[C@H]6[C@H](O)[C@@H](O)[C@@H](O[C@H]7[C@H](O)[C@@H](O)[C@@H](O[C@H]8[C@H](O)[C@@H](O)[C@@H](O[C@H]1[C@H](O)[C@H]2O)O[C@@H]8CO)O[C@@H]7CO)O[C@@H]6CO)O[C@@H]5CO)O[C@@H]4CO)O[C@@H]3CO | 1.41 µM [falling, partial curve, poor fit] | 6.31 µM [rising, single point]
39 | COc1ccc(C(CC(=O)O)NC(=O)c2cc3cc(Br)ccc3oc2=O)cc1OC (stereo not given) | – | 0.0141 µM [falling, full curve, poor fit]
40 | C=CCn1c(C(C)C)nc2ccccc21 | – | 1.26 µM [falling, partial curve]
41 | O=C(Nc1cccc([N+](=O)[O-])c1)c1ccc2c(c1)OCO2 | – | 31.6 µM [rising, single point]
42 | C/C(=N\Nc1nc2ccccc2[nH]1)c1ccc(N2CCOCC2)cc1 | 12.6 µM [falling, partial curve, poor fit] | –
43 | Cc1[nH]c2ccccc2c1C(=O)CSc1nc2ccccc2c(=O)n1CCCN1CCOCC1 | – | 22.4 µM [rising, single point]
44 | Cc1ccc(CN2CCN(Cc3cn(C)nc3C)CC2CCO)o1 (stereo not given) | 11.2 µM [falling, partial curve] | 11.2 µM [falling, partial curve]
45 | COc1ccc(/C=N/N=C2/NC(=O)C(c3ccccc3)S2)c(OC)c1 (stereo not given) | – | 7.08 µM [rising, partial curve]
46 | Cc1ccc(C(=O)CNc2ccc(F)cc2)cc1 | 1.26 µM [rising, partial curve] | 0.447 µM [rising, full curve, poor fit]
47 | C[C@@H]1[C@H](O)[C@@H](C)/C=C/C=C/C=C/C=C/C=C/C=C/C=C/[C@H](O[C@@H]2O[C@H](C)[C@@H](O)[C@H](N)[C@@H]2O)C[C@@H]2O[C@](O)(C[C@@H](O)C[C@@H](O)[C@H](O)CC[C@@H](O)C[C@@H](O)CC(=O)O[C@H]1C)C[C@H](O)[C@H]2C(=O)O | 0.00708 µM [falling, partial curve, poor fit] | –
48 | Cc1cccc(OCC(=O)N2CCN(C(=O)CCC3CCCC3)CC2)c1 | 2.82 µM [rising, full curve, poor fit] | 3.55 µM [rising, full curve, poor fit]

Entries of single compounds as entered above. Values in the order: AC50 [1]	AC50 [2]
CCOC(=O)c1sc(NC(=S)NC(=O)CC(C)C)cc1C as listed: 12.6 µM [rising, single point]	–
Cc1ccc(CN2CCN(Cc3cn(C)nc3C)CC2CCO)o1 (stereo not given) as listed: 11.2 µM [falling, partial curve]	11.2 µM [falling, partial curve]
